The supplement of paper PMC11348887
Counter-ions that a name gives are not always drawn. The list shows a part of the results. Most entries show no effect beyond the scatter of the controls.

What was measured:
Settings in all cases: 5 µM; treatment: days 7-14 after plating, readout day 21
[1] = test system: hPSC-derived cortical neurons (WA09); experiment: nucleus area z-score vs screen plate; higher = larger nuclei (more mature)
[2] = test system: hPSC-derived cortical neurons (WA09); experiment: total neurite length per nucleus (MAP2) z-score; higher = more neurite growth
[3] = test system: hPSC-derived cortical neurons (WA09); experiment: nucleus roundness z-score vs screen plate; higher = rounder nuclei (more mature)
[4] = test system: hPSC-derived cortical neurons (WA09); experiment: KCl-induced FOS+/EGR-1+ double-positive nuclei fraction z-score (KCl minus unstimulated); higher = stronger activity-induced IEG response

| SMILES | nucleus area z-score [1] | total neurite length per nucleus (z-score) [2] | nucleus roundness z-score [3] | KCl-induced FOS+/EGR-1+ double-positive nuclei fraction z-score [4] |
| --- | --- | --- | --- | --- |
| O=S(=O)(O)CCS [Mesna] | -0.147 | -0.275 | 1.12 | 0.203 |
| CCOC(=O)[N-]c1c[n+](N2CCOCC2)no1 [Molsidomine] | -1.32 | -0.476 | 0.264 | -0.237 |
| CC1(C)S[C@@H]2[C@H](NC(=O)[C@H](N)c3ccc(O)cc3)C(=O)N2[C@H]1C(=O)O [Amoxicillin] | -0.072 | 0.966 | 1.13 | 0.831 |
| CC(=O)O[C@H]1C[C@@]2(C)[C@@H](C[C@@H](O)[C@H]3[C@@]4(C)CC[C@@H](O)[C@@H](C)[C@@H]4CC[C@@]32C)/C1=C(\CCC=C(C)C)C(=O)O [Fusidate Sodium] | 0.074 | 0.0302 | 8.18e-05 | 0.376 |
| Cc1c(-c2ccc(O)cc2)n(Cc2ccc(OCCN3CCCCCC3)cc2)c2ccc(O)cc12 [Bazedoxifene HCl] | -7.52 | -3.06 | -3.83 | -2.19 |
| CCOc1cc2ncc(C#N)c(Nc3ccc(OCc4ccccn4)c(Cl)c3)c2cc1NC(=O)/C=C/CN(C)C [Neratinib (HKI-272)] | -8.66 | -2.71 | -5.62 | -1.23 |
| C[N+]1(C)[C@@H]2CC[C@H]1C[C@@H](OC(=O)C(O)c1ccccc1)C2 (some centres not stated) [Homatropine Methylbromide] | -0.0318 | 0.244 | 0.978 | -2.33 |
| O=C(N/N=C/c1cc(O)c(O)cc1O)c1cc2ccccc2cc1O [Dyngo-4a] | 0.205 | -0.49 | 0.453 | -0.498 |
| CCN(c1cc(-c2ccc(CN3CCOCC3)cc2)cc(C(=O)NCc2c(C)cc(C)[nH]c2=O)c1C)C1CCOCC1 | 0.649 | -0.209 | 0.206 | 0.873 |
| COc1ccc(Cl)c(Nc2nc3ccccc3nc2NS(=O)(=O)c2cccc(NC(=O)C(C)(C)N)c2)c1 [Pilaralisib (XL147)] | -0.171 | 0.0939 | 0.817 | 0.549 |
| NS(=O)(=O)c1cc2c(cc1Cl)N=CNS2(=O)=O [Chlorothiazide] | 0.514 | -0.674 | -0.253 | 0.109 |
| C#C[C@]1(OC(C)=O)CC[C@H]2[C@@H]3CCC4=C[C@@H](OC(C)=O)CC[C@@H]4[C@H]3CC[C@@]21C [Ethynodiol diacetate] | -0.241 | 0.426 | 0.723 | 0.167 |
| O=c1cc[nH]c(=S)[nH]1 [2-Thiouracil] | 1.21 | 0.492 | 0.114 | 1.27 |
| O=C1CN(/N=C/c2ccc(-c3ccc([N+](=O)[O-])cc3)o2)C(=O)N1 [Dantrolene sodium hemiheptahydrate] | 0.449 | -0.128 | -0.0598 | -0.981 |
| O=C1NC(=O)C(c2ccccc2)(c2ccccc2)N1 [Phenytoin] | 0.269 | 0.507 | -0.481 | 1.04 |
| Cc1nnc(C(C)C)n1C1C[C@H]2CC[C@@H](C1)N2CC[C@H](NC(=O)C1CCC(F)(F)CC1)c1ccccc1 (stereo in doubt) [Maraviroc] | 0.561 | -0.374 | -0.61 | -1.35 |
| CCc1ccc(/C=C2/SC(=S)NC2=O)cc1 | 2.32 | 0.732 | 0.586 | 0.131 |
| NC(=O)CC[C@H](N)C(=O)O [L-Glutamine] | 0.174 | 0.341 | 1.48 | 3.15 |
| Cc1ccccc1CN1C2=NCCN2C(=O)C2=C1CCN(Cc1ccccc1)C2 [TIC10 Analogue] | -0.226 | 1.61 | 1.69 | 0.491 |
| CC[C@H]1[C@@H](O)[C@@H]2[C@H](CC[C@]3(C)[C@@H]([C@H](C)CCC(=O)O)CC[C@@H]23)[C@@]2(C)CC[C@@H](O)C[C@@H]12 [Obeticholic Acid] | 0.206 | -0.483 | 0.0334 | 0.0484 |
| O=C(c1cncc(Br)c1)N1CCC(N2CCCC2)CC1 | 0.678 | 0.463 | 0.304 | 0.925 |
| CC(C)n1nc(-c2ccc3oc(N)nc3c2)c2c(N)ncnc21 | -4.26 | -3.29 | -1.97 | -0.91 |
| CCCCc1nc2cc(/C=C/C(=O)NO)ccc2n1CCN(CC)CC [Pracinostat (SB939)] | -8.12 | -3 | -4.24 | -1.22 |
| COc1ncc(-c2ccc3nccc(-c4ccnnc4)c3c2)cc1NS(=O)(=O)c1ccc(F)cc1F | -8.34 | -3.62 | -5.63 | 1.13 |
| OCCN1CCN(CCCN2c3ccccc3Sc3ccc(C(F)(F)F)cc32)CC1 [Fluphenazine dihydrochloride] | -2.6 | -3.04 | -3.05 | -1.15 |
| N=C(N)NC(=O)Cc1c(Cl)cccc1Cl [Guanfacine Hydrochloride] | -0.0353 | -0.251 | 0.282 | -0.206 |
| Cn1ncnc1[C@H]1c2n[nH]c(=O)c3cc(F)cc(c23)N[C@@H]1c1ccc(F)cc1 | -0.529 | -0.157 | 0.493 | -0.381 |
| COc1cc(O)c(C(=O)c2ccccc2)cc1S(=O)(=O)O [Sulisobenzone] | 1.79 | -0.479 | -0.449 | 0.579 |

Record cards (already shown). Values in the order: nucleus area z-score [1]	total neurite length per nucleus (z-score) [2]	nucleus roundness z-score [3]	KCl-induced FOS+/EGR-1+ double-positive nuclei fraction z-score [4]
`CC[C@H]1[C@@H](O)[C@@H]2[C@H](CC[C@]3(C)[C@@H]([C@H](C)CCC(=O)O)CC[C@@H]23)[C@@]2(C)CC[C@@H](O)C[C@@H]12` [Obeticholic Acid] is entered as 0.206	-0.483	0.0334	0.0484
`O=S(=O)(O)CCS` [Mesna] is entered as -0.147	-0.275	1.12	0.203
